Changes are numbered by the printed parent chain. Construct, isoform or probe ends are uncertain for at least one entry. For part of these data: Negatives hold for the conditions tested. For part of these data: Protein sequences can lack the tags named with them. For part of these data: Weaker means in comparison with the reference protein, sequence or condition of that experiment. For part of these data: At least one verdict rests on a figure or table, not on a statement of the authors. For part of these data: Whether high values mean tight binding is not given here for every scale.
Key:
[1] = target: Fur P18A (UniProt P0A9A9); assay: FP; conditions: 100 uM MnCl2; FP: 10 mM Tris-HCl pH 7.5, 75 mM NaCl, +/-150 uM MnCl2 (100 uM in Fig 4E), 1 nM DNA, 37 C 15 min; recombinant protein; label: FAM
[2] = target: Fur P18ASlyD (UniProt P0A9A9); assay: FP; conditions: 100 uM MnCl2; FP: 10 mM Tris-HCl pH 7.5, 75 mM NaCl, +/-150 uM MnCl2 (100 uM in Fig 4E), 1 nM DNA, 37 C 15 min; recombinant protein; label: FAM
[3] = target: Fur P18AYdiV (UniProt P0A9A9); assay: FP; conditions: 100 uM MnCl2; FP: 10 mM Tris-HCl pH 7.5, 75 mM NaCl, +/-150 uM MnCl2 (100 uM in Fig 4E), 1 nM DNA, 37 C 15 min; recombinant protein; label: FAM
[4] = target: T1, FurYdiV (UniProt P0A9A9); assay: FP; conditions: 150 uM MnCl2; FP: 10 mM Tris-HCl pH 7.5, 75 mM NaCl, +/-150 uM MnCl2 (100 uM in Fig 4E), 1 nM DNA, 37 C 15 min; recombinant protein; label: FAM
T1 sequence (looked up, limits assumed): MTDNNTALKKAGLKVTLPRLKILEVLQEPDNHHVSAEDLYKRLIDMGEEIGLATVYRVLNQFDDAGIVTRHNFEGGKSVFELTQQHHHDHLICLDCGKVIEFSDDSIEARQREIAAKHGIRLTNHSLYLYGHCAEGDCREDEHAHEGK

[5] = target: T2, Zn1FurYdiV (UniProt P0A9A9); assay: FP; conditions: EDTA-treated Fur, no Mn2+ added; FP: 10 mM Tris-HCl pH 7.5, 75 mM NaCl, +/-150 uM MnCl2 (100 uM in Fig 4E), 1 nM DNA, 37 C 15 min; recombinant protein; label: FAM
T2 sequence (looked up, limits assumed): T1 sequence (looked up, limits assumed)

[6] = target: T3, Fur P29ASlyD (UniProt P0A9A9); assay: EMSA; conditions: 100 uM MnCl2, 30 uM protein; EMSA: 10 mM Tris-HCl pH 7.5, 1 mM MgCl2, 40 mM KCl, 0.1 mg/ml BSA, 5% glycerol, +/-100 uM MnCl2, 25 nM DNA, 37 C 15 min; recombinant protein; label: FAM
T3 sequence (looked up, limits assumed): T1 sequence (looked up, limits assumed) with P29A

[7] = target: T4, Fur P29AYdiV (UniProt P0A9A9); assay: EMSA; conditions: 100 uM MnCl2, 30 uM protein; EMSA: 10 mM Tris-HCl pH 7.5, 1 mM MgCl2, 40 mM KCl, 0.1 mg/ml BSA, 5% glycerol, +/-100 uM MnCl2, 25 nM DNA, 37 C 15 min; recombinant protein; label: FAM
T4 sequence (looked up, limits assumed): T1 sequence (looked up, limits assumed) with P29A

[8] = target: T5, FurSlyD (UniProt P0A9A9); assay: EMSA; conditions: 100 uM MnCl2, 30 uM protein; EMSA: 10 mM Tris-HCl pH 7.5, 1 mM MgCl2, 40 mM KCl, 0.1 mg/ml BSA, 5% glycerol, +/-100 uM MnCl2, 25 nM DNA, 37 C 15 min; recombinant protein; label: FAM
T5 sequence (looked up, limits assumed): T1 sequence (looked up, limits assumed)

[9] = target: T1, FurYdiV; assay: EMSA; conditions: 100 uM MnCl2; EMSA: 10 mM Tris-HCl pH 7.5, 1 mM MgCl2, 40 mM KCl, 0.1 mg/ml BSA, 5% glycerol, +/-100 uM MnCl2, 25 nM DNA, 37 C 15 min; recombinant protein; label: FAM
[10] = target: T6, FurYdiV,SlyD (UniProt P0A9A9); assay: EMSA; conditions: 100 uM MnCl2, 30 uM protein; EMSA: 10 mM Tris-HCl pH 7.5, 1 mM MgCl2, 40 mM KCl, 0.1 mg/ml BSA, 5% glycerol, +/-100 uM MnCl2, 25 nM DNA, 37 C 15 min; recombinant protein; label: FAM
T6 sequence (looked up, limits assumed): T1 sequence (looked up, limits assumed)

[11] = target: T7, Zn1Fur (UniProt P0A9A9); assay: EMSA; conditions: no Mn2+ added; EMSA: 10 mM Tris-HCl pH 7.5, 1 mM MgCl2, 40 mM KCl, 0.1 mg/ml BSA, 5% glycerol, +/-100 uM MnCl2, 25 nM DNA, 37 C 15 min; recombinant protein; label: FAM
T7 sequence (looked up, limits assumed): T1 sequence (looked up, limits assumed)

[12] = target: T8, ΔydiV FurSlyD (UniProt P0A9A9); assay: EMSA; conditions: 100 uM MnCl2, 30 uM protein; EMSA: 10 mM Tris-HCl pH 7.5, 1 mM MgCl2, 40 mM KCl, 0.1 mg/ml BSA, 5% glycerol, +/-100 uM MnCl2, 25 nM DNA, 37 C 15 min; recombinant protein; label: FAM
T8 sequence (looked up, limits assumed): T1 sequence (looked up, limits assumed)

“GATAATGATAATGATAATGATAATGATAATGA (double strand) [Fur box DNA]”: binds more weakly [1]; binds more weakly [2]; binds more weakly [3]. The binding signal (fold lower affinity than native Fur) [4] was 300, the Kd [5] was 146 µM and the binding result [6] was “no binding”. “GATAATGATAATGATAATGATAATGATAATGA (double strand) [Fur box DNA]”: no binding [7]; no binding [8]; no binding [9]. “GATAATGATAATGATAATGATAATGATAATGA (double strand) [Fur box DNA]”: no binding [10]; binds [11]; no binding [12].
